Paper PMC12145721

B1: PRO11 (protein, UniProt Q70M86 1-845)
chain: MGTNGVHVSFGAGHEMGGVMGNGSGQPPATEYTLQGVMRFLQTEWHRHERDRNAWEIEKQEMRARIANLEGQARRADATQKALKRYVSILEKKVKEQSAALKSGGKEKGVEDEAEAEDNKTKLDRSALIQEKLRPNTKLSGAPNEAENVEIGPPDDESARNELKTFLDQCQAEFTYLMVTPANPQPPRESPPLPILDDFREGEALNQQLEQSYQRSQQSQIRDLLAQQAAAANATNVAAVQSQQQQPQQQQHAVGPRPQTNQPPKGYGELAQGAPMERSSRGQQLHDILKSGETPDWSASMQSQPVEEPTSALSKAPPMVRGDGREPAVPKSASTTDAWDFNESNFQDPNAMPQPTPQQSFSSRPDTDAFPSAENLTKSPNRGALSHRRKSSSGMARRRSAEHELSLGSLQQKAEGTMFKFRFGLRGHLDVVRTVIFSGGGSPGEPEICTAGDDGLVKRFHIPDRHIGQRNADGDLDVAADFTHRGHSGAVLSLASWSPSPNFSTGGRAQGDGWIFSGGQDATIRVWERGRVDPKATLDGHTDAVWALCVLPTNLGAIFGQTNSHGPPDRILLVSGAADGTVKVWAVSAPPQLTSPQPGPGRRGPGGRVRGNSMSSGSAFPSSPQPTTASNSPFHHTLVHTIKRANSEASPTCITALSPNGETFAVSYADAAIIVYDTRSGEEIGTMASLDTYDGTNNTAVNAVVATTVGLDQTQGPGGEDESGGGPTGGGRSMAGSGVEGTIISGHEDRYIRFFDANSGQCTYNMLAHPGSVSSLSLSPDGRELVSAGHDMSLRFWSLETRSCTQEMTCHRSMRGEGVCAVVWSQDGRWVVSSGGDGMVKVYAR
B2: PRO22 (protein, UniProt F7VWV9 1-1120)
chain: MTIMNALWSKATSSSGDSAQKSAKPTNDAVNTTSEALPDLSERPNAPALPARPALQRNQPSAPPPAAPSNPPPPVPSGSGSGNANNASAQPQDSLSLAQLRRIVAEFPKSEPIAYDYVYSDMGPIEEEVDEWFFYDFWQYVRLNNANHAFDSAWVKMYGEDETWESVDDDGREKFVRNEVEQLQVSSDKTARVEAIGTLLYIVLGRWTATVKKANLPNLADHKVKSAATKEQLDAMKAGVKLLAKYGGLPPMWDALRKAFELFWADDGDASQRVQANNEELMELMHLMTILYISLQTTMDDVEDMAVARKELLALNPNLVHFMLHATAKLRWDDRNILPQAQVGSATFGIPVAANQHRMLMSSQVFLLFWKSLLLVFGGSKHIAEAKKATAETLSDVKDKEIITASPLDYHVFRQEITSKYPSYIPPQCAIPLEAEQTSILPPLPNHPTRNNGQNGILPGPPNQSASASILHQPVHIATPAPSPPPSPGVGGKGGKKQNYQTNQNFPFMYPPLDATSNSAGGKGGAGLQDLLVGRKWEGSDVPASIIEAGELFSTRTRMTRATRQLWEERERFLKFERGWEGADEDLIDELDLSELTLEEKEELGLLKESEKKKEKHGHEIDLGPRPVDDDIKRRLEAVEEFYKEALPHLQSLVIVLLKAIVAIASSFVQPPPGQQNPGPQNNGRAGGGPPQGRGQNNGNNASNDPPSPSDDNVDEARSREIAAKAVTGIMILLLKWLKLSHILKFEYFTQLLLDSNYLPLVLKLFALHDVQQVVESKTDRIEHSFFYFCASRSGVIPPQGLINPTATDFEDVDVSEDEAAPPAIKRNRSPPGAEKGGPPDASSQPTQQQQQQQRFENSDVQSRPEVDELGYPVNPLPKEPITDFSRRNFFSLINYLRVMQKICKHKAHRNLLLVHYKSSNILRKSLKVPQQELRLYTLKLFKNQVPYCGRKWRQSNMRVITAIYLHCRPELRDEWLSGSDVDAEVEEALPLEQALRSLTHWFNVQRYPERMGAEVTAAMREERDFFTRELEKSDWMGWEGIMAGGGMGMDGGGGGPEPMMGMQGMQGMPGMPGMGMGMNMGMPGMGIGGMPGMGGMAGIEYAAAAAAAQTEHENSMGWS

How the values were obtained:
[1] = molecular target: SCI1-TurboID (STRIPAK complex interactor 1 fused to TurboID) (Sordaria macrospora); assay: proximity labelling; BioID in vivo in S. macrospora: 3 biological replicates, 3 days in liquid BMM at 27 °C; 10 µM biotin for 4 h (SCI1-TurboID, SCI1-miniTurboID) or 30 min (free TurboID control); lysis with 4 % SDS, capture on Strep-Tactin Sepharose, LC-MS with LFQ; volcano plot against free TurboID, FDR = 0.01, s0 = …
[2] = molecular target: SCI1-miniTurboID (STRIPAK complex interactor 1 fused to miniTurboID) (Sordaria macrospora); assay: as above

Row | Binder | binding [1] | binding [2]
1 | B1 | binds | binds
2 | B2 | binds | binds

These are yes or no findings as the source states them, for the method shown. Binding seen in cells or lysates may run through a third protein. Here binding means that the protein was enriched with, or labelled near, the bait; the list need not be complete.
